Reference: patent US20240299420A1, “TETRACYCLINE DERIVATIVE-INDUCED MITOHORMESIS MEDIATES DISEASE TOLERANCE AGAINST VIRAL INFECTIONS” (priority 2021, published 2024)
For at least one compound, name, drawing or mass did not settle the structure.

How the values were obtained:
IFV H1N1 PR8 strain [1] = test: IFV infection in BALB/cN mice, 1000 PFU, preventive treatment; assay type: in vivo, mouse; conditions: Dox 50 mpkd
IFV H1N1 PR8 strain [2] = test: IFV infection in BALB/cN mice, 175 PFU, preventive treatment; assay type: in vivo, mouse; conditions: day 7 post infection, Dox 40 mpkd, 9-TB 1 mpkd
[3] = tested on: IFV-A H1N1 PR8 infected BALB/cN mice; test: RNA-Seq and GSEA of lung, liver and kidney of IFV infected mice (175 PFU, day 7); conditions: 9-TB 1 mpkd, Dox 40 mpkd

C[C@H]1c2cccc(O)c2C(=O)C2=C(O)[C@]3(O)C(=O)C(C(N)=O)=C(O)[C@@H](N(C)C)[C@@H]3[C@@H](O)[C@@H]21 [Dox, doxycycline]
mortality and decline in health (IFV H1N1 PR8 strain [1]; 9-TB 12.5 mpkd i.p.): delayed mortality
viral titer in the lungs (IFV H1N1 PR8 strain [1]; day 5 post-infection, 9-TB 12.5 mpkd): absence of an impact on the viral titer
viral titer in the lung tissue (IFV H1N1 PR8 strain [2]): no significant difference in viral titer
immune-related and inflammatory gene sets in liver and kidney (GSEA) [3]: weaker down-regulation
